These are yes or no findings as the source states them, for the method shown. In cells and extracts the contact can be indirect. Some results given as binding are weak or reduced against the parent protein; the word gives no strength.
Key:
[1] = target: Arginine deiminase with C-terminal c-myc tag, expressed in the cytosol (pcDNA4-ADI) (UniProt P23793); test: co-IP; ADI-transfected cells; immunoprecipitation with antibodies specific for ADI or FTL, immunoprecipitates separated by SDS-PAGE and blotted with the indicated antibodies
[2] = target: Ferritin light-chain domain in ADI-transfected cells (human (endogenous in the ADI-transfected human cell lines)) (UniProt P02792); test: as above

Protein sequences, listed by entry. Tags and fused reporters are not part of them.
UniProt P23793: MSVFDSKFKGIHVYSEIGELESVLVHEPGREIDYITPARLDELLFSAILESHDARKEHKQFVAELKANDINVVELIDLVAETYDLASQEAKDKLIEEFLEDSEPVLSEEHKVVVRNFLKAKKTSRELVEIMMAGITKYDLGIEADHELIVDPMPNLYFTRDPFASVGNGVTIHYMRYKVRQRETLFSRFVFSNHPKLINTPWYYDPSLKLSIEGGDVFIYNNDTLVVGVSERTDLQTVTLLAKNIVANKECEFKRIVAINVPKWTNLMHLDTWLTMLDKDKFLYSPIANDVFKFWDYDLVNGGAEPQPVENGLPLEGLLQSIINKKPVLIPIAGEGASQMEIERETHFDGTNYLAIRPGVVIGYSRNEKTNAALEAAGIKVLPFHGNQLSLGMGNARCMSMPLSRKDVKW
UniProt P02792: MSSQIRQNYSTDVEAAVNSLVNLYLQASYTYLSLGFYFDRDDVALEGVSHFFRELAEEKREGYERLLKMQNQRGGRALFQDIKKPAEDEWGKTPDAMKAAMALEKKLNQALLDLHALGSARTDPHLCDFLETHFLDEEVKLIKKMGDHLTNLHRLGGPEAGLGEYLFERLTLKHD

Substance	binding [1]	binding [2]
Ferritin light-chain domain in ADI-transfected cells (from UniProt P02792 1-175)	binds	–
Arginine deiminase with C-terminal c-myc tag, expressed in the cytosol (pcDNA4-ADI) (from UniProt P23793 1-410) (enzyme)	–	binds

— publication PMC7367323
